These are yes or no findings as the source states them, for the method shown. In cells and extracts the contact can be indirect. For some of these results: Binding can be weak; no strength is given. Where a sequence is shown, tags or fusion partners need not be part of it.
T1: GFP-C15 (C15 of PF4 fused to GFP)
T1 sequence: QAPLYKKIIKKLLES

B1: PF4-Myc (wild-type platelet factor 4 with a Myc tag) (protein, UniProt P02776 32-101)
chain: EAEEDGDLQCLCVKTTSQVRPRHITSLEVIKAGPHCPTAQLIATLKNGRKICLDLQAPLYKKIIKKLLES

Legend:
Test in all cases: co-IP
[1] = biological target: T1, GFP-C15 (C15 of PF4 fused to GFP)
[2] = biological target: CA6-VP3-Δ155–170-HA (coxsackievirus A6)
[3] = biological target: EVD68-VP3-Δ155–170-HA (enterovirus D68)

Row | Molecule | binding [1] | binding [2] | binding [3]
1 | CA6-VP3-D156A-HA (coxsackievirus A6) | binds |  | 
2 | EVD68-VP3-D156A-HA (enterovirus D68) | binds |  | 
3 | B1 |  | no binding | no binding
